Here are results for two molecules from paper PMC10280841.

The experiment concerns the target T1, LRP10 in female E4FAD mouse brain (mouse (endogenous in E4FAD mouse brain)) (UniProt Q7TQH7).
T1 sequence: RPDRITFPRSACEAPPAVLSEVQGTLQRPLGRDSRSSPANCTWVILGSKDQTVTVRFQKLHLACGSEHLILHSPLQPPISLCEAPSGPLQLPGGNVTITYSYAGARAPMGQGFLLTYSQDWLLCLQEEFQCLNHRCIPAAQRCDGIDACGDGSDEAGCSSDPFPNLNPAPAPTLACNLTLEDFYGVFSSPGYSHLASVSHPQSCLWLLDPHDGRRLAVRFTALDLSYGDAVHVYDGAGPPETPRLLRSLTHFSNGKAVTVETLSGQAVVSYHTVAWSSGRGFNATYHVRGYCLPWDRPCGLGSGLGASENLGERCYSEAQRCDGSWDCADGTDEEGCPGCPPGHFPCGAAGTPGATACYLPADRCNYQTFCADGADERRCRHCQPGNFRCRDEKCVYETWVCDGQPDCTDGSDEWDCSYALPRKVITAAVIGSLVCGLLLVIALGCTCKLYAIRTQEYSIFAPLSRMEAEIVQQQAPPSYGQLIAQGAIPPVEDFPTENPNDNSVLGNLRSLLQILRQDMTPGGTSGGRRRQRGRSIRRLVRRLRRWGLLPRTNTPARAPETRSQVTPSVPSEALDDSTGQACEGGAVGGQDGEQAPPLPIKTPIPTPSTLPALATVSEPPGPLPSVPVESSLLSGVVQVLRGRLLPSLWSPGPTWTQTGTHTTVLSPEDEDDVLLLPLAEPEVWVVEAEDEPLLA
Put plainly: co-IP; pull-down by anti-LRP10 antibody from female E4FAD mouse brain lysates, LRP10 OE versus scramble controls; CD34, NBR1 and ACBD3 detected and quantified as a percentage of the control.

Results are given in words; binding and its absence hold for the method and conditions named. Binding seen in cells or lysates may run through a third protein. Some results given as binding are weak or reduced against the parent protein; the word gives no strength.

B1: CD34 in female E4FAD mouse brain (protein, UniProt Q64314 35-382)
chain: TTETSTQGISPSVPTNESVEENITSSIPGSTSHYLIYQDSSKTTPAISETMVNFTVTSGIPSGSGTPHTFSQPQTSPTGILPTTSDSISTSEMTWKSSLPSINVSDYSPNNSSFEMTSPTEPYAYTSSSAPSAIKGEIKCSGIREVRLAQGICLELSEASSCEEFKKEKGEDLIQILCEKEEAEADAGASVCSLLLAQSEVRPECLLMVLANSTELPSKLQLMEKHQSDLRKLGIQSFNKQDIGSHQSYSRKTLIALVTSGVLLAILGTTGYFLMNRRSWSPTGERLGEDPYYTENGGGQGYSSGPGASPETQGKANVTRGAQENGTGQATSRNGHSARQHVVADTEL
On to B1, for which the binding entry is listed as “binds”.

B2: ACBD3 in female E4FAD mouse brain (protein, UniProt Q8BMP6 1-525)
chain: MAAQLNVEQLEVSLDGLTLSPDSEERPGAEGAPPQTPPSSAPGNGLGSGASGQQREPGEAAAEGAAEEARRMEQHWGFGLEELYGLALRFYKIKDGKAFHPTYEEKLKFVALHKQVLLGPYNPDTSPEVGFFDVLGNDRRREWAALGNMSKEDAMVEFVKLLNKCCPLLSAYVASHRIEKEEEEKRRKAEEERRQREEEERERLQKEEEKRKREKEDRLRREEEERRRIEEERLRLEQQKQQIMAALNSQTAVQFQQYAAQQYPGNYEQQQILIRQLQEQHYQQYMQQLYQVQLAQQQAALQKQQEVVMAGASLPASSKVNTAGASDTLSVNGQAKTHTENSEKVLEPEAAEEALENGPKDSLPVIAAPSMWTRPQIKDFKEKIRQDADSVITVRRGEVVTVRVPTHEEGSYLFWEFATDSYDIGFGVYFEWTDSPNAAVSVHVSESSDEEEEEEENVTCEEKAKKNANKPLLDEIVPVYRRDCHEEVYAGSHQYPGRGVYLLKFDNSYSLWRSKSVYYRVYYTR
Take B2: the binding result is listed as “binds”.
